Assay results reported in the supplement of paper PMC10398353.
Counter-ions that a name gives are not always drawn. The list shows a part of the results. The data scatter; read single values as rough.

system: Salmonella enterica serovar Typhimurium ST313 D23580; assay: normalized bacterial growth (OD600 20 h minus 0 h, interquartile-mean normalized) (fraction of plate interquartile mean); higher = more bacterial growth (less inhibition); details: LPM (pH 5.8, low phosphate, low Mg2+), concentration: 10 µM, temperature: 37 °C

| SMILES | normalized bacterial growth |
| --- | --- |
| O=C(N/N=C/c1ccc([N+](=O)[O-])o1)c1ccc(O)cc1 | 1.18 |
| O=C1C=CC(=O)c2c1ccc1c2ccc2ccccc21 ["Chrysene-1,4-quinone"] | 0.854 |
| NC(=O)c1ncn([C@@H]2O[C@H](CO)[C@@H](O)[C@H]2O)c1O [Mizoribine] | 1.22 |
| CC(C)(O/N=C(\C(=O)N[C@@H]1C(=O)N2C(C(=O)[O-])=C(C[n+]3ccccc3)CS[C@H]12)c1csc(N)n1)C(=O)O | 0.859 |
| CC(C)(O/N=C(\C(=O)N[C@@H]1C(=O)N2C(C(=O)[O-])=C(C[n+]3ccccc3)CS[C@H]12)c1csc(N)n1)C(=O)O [Ceftazidime pentahydrate] | 0.759 |
| O=c1onc2n1-c1cc(Br)ccc1OC2 | 0.976 |
| OC[C@H]1O[C@@H](OCCc2ccc(O)cc2)[C@H](O)[C@@H](O)[C@@H]1O | 1.26 |
| COc1ccc(C2CC(=O)c3ccc(OC)cc3O2)cc1 (stereo not drawn) | 0.629 |
| CNCCC=C1c2ccccc2CCc2ccccc21 [Nortriptyline hydrochloride] | 0.777 |
| CNCCC=C1c2ccccc2CCc2ccccc21 | 0.813 |
| C[C@H]1[C@H](NC(=O)/C(=N\OC(C)(C)C(=O)O)c2csc(N)n2)C(=O)N1S(=O)(=O)O [Aztreonam] | 0.0646 |
| CC(=O)O[C@H]1CC[C@]2(C)[C@H]3CC[C@@]4(C)[C@H](c5ccoc5)OC(=O)[C@H]5O[C@]54[C@]3(C)[C@H](OC(C)=O)C[C@H]2C1(C)C [3beta-ACETOXYDEOXODIHYDROGEDUNIN] | 1.19 |
| Cc1ccc2c(c1)CC[C@H]1CC(=O)CC[C@]21C | 1.22 |
| NCC(O)c1ccc(O)c(O)c1 (stereo not drawn) [()-Norepinephrine (+)bitartrate] | 1.05 |
| O=c1ccc2c(OCCCCc3ccccc3)c3ccoc3cc2o1 [Psora-4] | 1.1 |
| NC(=O)c1cc[n+](CC2=C(C(=O)O)N3C(=O)[C@@H](NC(=O)C(c4ccccc4)S(=O)(=O)[O-])[C@H]3SC2)cc1 (stereo partly drawn) [Cefsulodin sodium salt hydrate] | 0.91 |
| CCn1cc(C(=O)O)c(=O)c2cc(F)c(N3CCNC(C)C3)c(F)c21 (stereo not drawn) [Lomefloxacin hydrochloride] | 1.09 |
| COc1cc(C)nc(-n2nc(C)cc2OC)n1 [Epirizole] | 1.03 |
| CS(=O)(=O)Nc1ccc([N+](=O)[O-])cc1Oc1ccccc1 [Nimesulide] | 1.02 |

| SMILES | normalized bacterial growth |
| --- | --- |
| O=C(O)C1=CCNCC1 [Isoguvacine hydrochloride] | 1.04 |
| CNC(=C[N+](=O)[O-])NCCSCc1csc(CN(C)C)n1 | 0.873 |
| CNC(=C[N+](=O)[O-])NCCSCc1csc(CN(C)C)n1 [Nizatidine] | 1.02 |
| CCC1=C[C@@H]2CN(C1)Cc1c([nH]c3ccccc13)[C@@](C(=O)OC)(c1cc3c(cc1OC)N(C)[C@H]1[C@@](O)(C(=O)OC)[C@H](OC(C)=O)[C@]4(CC)C=CCN5CC[C@]31[C@@H]54)C2 | 0.992 |
| CC1(C)[C@@H](O[C@H]2O[C@H](C(=O)O)[C@@H](O)[C@H](O)[C@H]2O[C@@H]2O[C@H](C(=O)O)[C@@H](O)[C@H](O)[C@H]2O)CC[C@]2(C)[C@H]3C(=O)C=C4[C@@H]5C[C@@](C)(C(=O)O)CC[C@]5(C)CC[C@@]4(C)[C@]3(C)CC[C@@H]12 | 1.09 |
| CCOC(=O)CCC(=O)O[C@H]1[C@H](O[C@@H]2[C@@H](C)[C@H](O[C@H]3C[C@@](C)(OC)[C@@H](O)[C@H](C)O3)[C@@H](C)C(=O)O[C@H](CC)[C@@](C)(O)[C@H](O)[C@@H](C)C(=O)[C@H](C)C[C@@]2(C)O)O[C@H](C)C[C@@H]1N(C)C | 1.11 |
| C[C@]12C=CC(=O)C=C1CC[C@@H]1[C@@H]2C(=O)C[C@@]2(C)[C@H]1CC[C@]2(O)C(=O)CO | 1.05 |
| C[C@]12C=CC(=O)C=C1CC[C@@H]1[C@@H]2C(=O)C[C@@]2(C)[C@H]1CC[C@]2(O)C(=O)CO [Prednisone] | 1.03 |
| C[C@]12C=CC(=O)C=C1CC[C@@H]1C2=CC[C@]2(C)[C@@H](C(=O)CN3CCN(c4cc(N5CCCC5)nc(N5CCCC5)n4)CC3)CC[C@@H]12 | 1.22 |
| C[C@@H]1O[C@@H]1P(=O)(O)O [Phosphomycin disodium] | 1.15 |
| Cn1c(=O)c2[nH]c(-c3ccc(S(=O)(=O)O)cc3)nc2n(C)c1=O [8-(p-Sulfophenyl)theophylline] | 1.14 |
| CCCCCCCCCCC(C)(C)C(=O)Nc1c(OC)cc(OC)cc1OC | 0.73 |
| CCn1cc(C(=O)O)c(=O)c2cc(F)c(N3CCN(C)CC3)cc21 | 0.576 |
| CC[C@]12CCCN3CCc4c(n(c5ccccc45)C(=O)C1)[C@@H]32 | 0.857 |
| CCCCC(=O)Oc1ccccc1C(=O)O | 1.29 |
| CC(N)(C(=O)O)c1ccc(C(=O)O)cc1 (stereo not drawn) [()-alpha-Methyl-4-carboxyphenylglycine] | 1.24 |
| CC#CCOC(=O)c1c(C)nc2sc3c(c2c1N)CCC(O)C3 (stereo not drawn) | 0.944 |
| COc1cc2c(cc1OC)[C@@H](c1ccccc1)CN(C)CC2 | 1.13 |
| NC(=O)c1ncn([C@@H]2O[C@H](CO)[C@@H](O)[C@H]2O)c1N | 1.12 |

Not a retest: entries from further up.

| SMILES | normalized bacterial growth |
| --- | --- |
| NCC(O)c1ccc(O)c(O)c1 (stereo not drawn) [()-Norepinephrine (+)bitartrate] | 1.05 |
| O=c1ccc2c(OCCCCc3ccccc3)c3ccoc3cc2o1 [Psora-4] | 1.1 |
| NC(=O)c1cc[n+](CC2=C(C(=O)O)N3C(=O)[C@@H](NC(=O)C(c4ccccc4)S(=O)(=O)[O-])[C@H]3SC2)cc1 (stereo partly drawn) [Cefsulodin sodium salt hydrate] | 0.91 |
